Test results from PMC7395460, “Structural mechanism of helicase loading onto replication origin DNA by ORC-Cdc6” (Proceedings of the National Academy of Sciences of the …, 2020).
No constants are given. Whether binding was seen depends on the method and setting. Some binding calls cover weakened binding; strength is not graded here.

Molecular target: T1, Orc2 (S. cerevisiae), P32833
T1 chain: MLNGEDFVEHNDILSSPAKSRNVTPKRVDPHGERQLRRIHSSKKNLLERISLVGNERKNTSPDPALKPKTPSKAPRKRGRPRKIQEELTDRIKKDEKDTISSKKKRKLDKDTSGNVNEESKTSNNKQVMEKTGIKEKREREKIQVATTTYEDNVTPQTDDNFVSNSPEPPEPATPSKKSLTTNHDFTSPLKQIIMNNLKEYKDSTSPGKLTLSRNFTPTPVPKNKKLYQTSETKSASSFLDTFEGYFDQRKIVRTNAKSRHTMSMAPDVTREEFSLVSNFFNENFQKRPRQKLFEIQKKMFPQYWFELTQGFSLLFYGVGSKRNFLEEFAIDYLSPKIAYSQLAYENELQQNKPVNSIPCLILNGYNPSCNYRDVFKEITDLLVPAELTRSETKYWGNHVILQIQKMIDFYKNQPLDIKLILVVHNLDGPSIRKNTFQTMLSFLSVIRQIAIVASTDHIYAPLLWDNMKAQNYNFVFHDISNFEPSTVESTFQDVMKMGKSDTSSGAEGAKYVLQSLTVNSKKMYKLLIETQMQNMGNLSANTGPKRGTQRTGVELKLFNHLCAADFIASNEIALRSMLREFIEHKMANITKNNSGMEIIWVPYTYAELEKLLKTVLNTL
Test: cryo-EM structure; semi-attached OCCM, 4.3 Å; assembled from purified ORC, Cdc6, Cdt1 and mutant Mcm2-7 on pUC19-ARS1 DNA beads with 3 mM ATPγS, 15 min at 24 °C, eluted with DNase I; both purified
Details: remark: other sources report otherwise

binding: binds
B1: Cdc6 (natural protein, S. cerevisiae)
chain: MSAIPITPTKRIRRNLFDDAPATPPRPLKRKKLQFTDVTPESSPEKLQFGSQSIFLRTKALLQKSSELVNLNSSDGALPARTAEYEQVMNFLAKAISEHRSDSLYITGPPGTGKTAQLDMIIRQKFQSLPLSLSTPRSKDVLRHTNPNLQNLSWFELPDGRLESVAVTSINCISLGEPSSIFQKIFDSFQDLNGPTLQIKNMQHLQKFLEPYHKKTTFVVVLDEMDRLLHANTSETQSVRTILELFLLAKLPTVSFVLIGMANSLDMKDRFLSRLNLDRGLLPQTIVFQPYTAEQMYEIVIQKMSSLPTIIFQPMAIKFAAKKCAGNTGDLRKLFDVLRGSIEIYELEKRFLLSPTRGSLNSAQVPLTPTTSPVKKSYPEPQGKIGLNYIAKVFSKFVNNNSTRTRIAKLNIQQKLILCTIIQSLKLNSDATIDESFDHYIKAITKTDTLAPLQRNEFLEICTILETCGLVSIKKTKCKGKTKRFVDKIDVDLDMREFYDEMTKISILKPFLH
notes: Cdc6 of S. cerevisiae
